Data as given in patent US11844846B2, “Styrylbenzothiazole derivatives and uses in imaging methods” (Emory University, priority 2018, dated 2023).
The structures given here were assigned with low confidence; some may be wrong.

The chains behind the UniProt entries cited, without tags or fusion partners. Residues count along the entry.
UniProt P05067, 672-713 limits assumed: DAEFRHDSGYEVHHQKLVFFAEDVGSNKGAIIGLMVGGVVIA

Columns and labels:
[1] = target: Aβ fibrils in AD cases (Homo sapiens, UniProt P05067); experiment: [18F]F0502B binding to patient brain insoluble fibrillar fractions, Aβ
Procedure: (§1) [^18F]F0502B was evaluated in vitro and ex vivo binding assays to validate its specificity. α-Syn, Tau and Aβ PFFs were respectively incubated with increasing concentrations of [^18F]F0502B. The binding data were analyzed by curve fitting using nonlinear regression to obtain Kd and Bmax values. The Kd and a Bmax manifested the specific binding affinity with different fibrils. The affinity of [^18F]F0502B for AD 1-42 or Tau fibrils was much lower than that for α-Syn fibrils. […] To determine whether a binding site identified on recombinant α-Syn fibrils is also present in PD tissues, and to determine whether the density of binding sites is high enough to image fibrillar α-Syn in vivo, experiments on the binding of [^18F]F0502B to LBD, AD patient and control brain homogenates were conducted as well as extracted α-Syn, Tau and Aβ insoluble fibrillar fractions prepared from these samples, Kd and Bmax values for the PD cases were 37.47 nM and 14.3 pmol/nmol. In contrast, the Kd and Bmax values for Aβ fibrils in AD cases were 950.4 nM and 10.8 pmol/nmol and for Tau fibrils in AD cases were 1883 nM and 6.9 pmol/nmol. […] Autoradiography with [^18F]F0502B in human brain slices was performed. [^18F]F0502B selectively associated with the Lewy bodies in the brain sections from A53T PD mice but not in WT and AD transgenic mice. […]

[2] = target: Lewy bodies in the brain sections from LBD patients (Homo sapiens, UniProt P37840); experiment: autoradiography with [18F]F0502B, human brain slices; assay type: binding; conditions: LBD versus AD patients
Procedure: as §1

[3] = target: Lewy body in the SN regions (Homo sapiens, UniProt P37840, A53T); experiment: microPET-CT imaging in mice
Procedure: To assess the performance of the developed PET tracer in a rodent PD model, microPET-CT imaging was performed in mice by the tail vein injection of [^18F]F0505B. Brain images were obtained 1 h after administration of radioactive PET Tracer in a A53T PD model. […] The mice were anesthetized using isoflurane and positioned in a prone position in the microPET-CT scanner with the brain in the field of view.
Following the acquisition of a CT attenuation correction scan, the mice were injected with the [^18F]-compound13 via the tail vein. Image voxel intensities represent absolute tracer concentration in units of μCi/ml. […] Though radioactive signals were found in the neck of 5×FAD mice, they were outside the brain.

[4] = target: α-Syn fibrils (Homo sapiens, UniProt P37840); experiment: [18F]F0502B saturation binding to α-Syn fibrils; conditions: synthetic fibrils, result in words
Procedure: as §1

[5] = tested on: Tau fibrils in AD cases; experiment: [18F]F0502B binding to patient brain insoluble fibrillar fractions, Tau; parameters: species or system human
Procedure: as §1

[6] = target: Lewy bodies in the brain sections from A53T PD mice (Homo sapiens, UniProt P37840, A53T); experiment: autoradiography with [18F]F0502B, mouse brain sections; assay type: binding; conditions: A53T PD versus WT and AD transgenic mice
Procedure: as §1

[7] = target: α-Syn insoluble fibrillar fraction, PD cases (Homo sapiens, UniProt P37840); experiment: [18F]F0502B binding to patient brain insoluble fibrillar fractions, α-Syn
Procedure: as §1

## Cc1cc2nc(/C=C/c3ccc(O)c(Br)c3)sc2cc1N(C)CCOCC[18F]
[1]
  Bmax: 10.8 pmol/nmol
  Kd: 950 nM
[2]
  autoradiography binding in human brain sections: selectively associated with the Lewy bodies in the brain sections from LBD but not AD patients
[3]; 5×FAD mice
  PET signal: radioactive signals were found in the neck of 5×FAD mice, they were outside the brain
[3]; A53T PD mice
  PET signal: specifically lighted up the Lewy body in the SN regions in A53T PD mice
[3]; WT or Tau P301S mice
  PET signal: no signals were observed in WT or Tau P301S mice
[4]
  binding affinity for α-Syn fibrils: high binding affinity for synthetic α-Syn
[5]
  Bmax: 6.9 pmol/nmol
  Kd: 1880 nM
[6]
  autoradiography binding in mouse brain sections: selectively associated with the Lewy bodies in the brain sections from A53T PD mice but not in WT and AD transgenic mice
[7]
  Bmax: 14.3 pmol/nmol
  Kd: 37.5 nM
